According to PubChem BioAssay AID651640 (Broad Institute, 2012):
About 6,000 (1.7%) of roughly 350,000 compounds were called active. The inconclusive results got no clear call from the source; some entries with a clear call stand among them for comparison. Cut-off read from the data, not from the text of the source: active = CPE inhibition above about 20% (passing the limit was not always enough); inconclusive = no clear call, values can overlap the other calls; tested in BHK-21 cells.

assay: protection of cells from dengue 2 killing – plate reader, single concentration, primary screen (AID 651640); conditions: DENV2-infected cells, cytopathic effect rescue, at 9.99 µM, hits give high values;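 note: 0% = median of neutral control wells and 100% = median of positive control wells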

SMILES	CPE inhibition
CN(C)CC(=O)N1C[C@@H]2N[C@H](C1)C2c1ccc(-c2ccccc2F)cc1 (stereo not given in full)	inconclusive: 27.1%
CC(C)=C(NC(=O)c1ccccc1Cl)C(=O)NCCc1nc2ccccc2[nH]1	active: 130%
C[C@@H]1CN([C@H](C)CO)C(=O)c2cc(-c3ccc(C#N)cc3)cnc2O[C@@H]1CN(C)Cc1ccccn1	inconclusive: 28.2%
CNS(=O)(=O)c1cn(CC(=O)NCc2ccc(F)cc2)cc1S(=O)(=O)NC	inconclusive: 47.3%
O=C(NCc1cccs1)C(=O)c1c[nH]c2ccccc12	inconclusive: 20.3%
Cc1noc(C)c1NC(=O)NCC[C@H]1CC[C@@H](NC(=O)Cc2cccnc2)[C@@H](CO)O1	inconclusive: 20.7%
Cc1ccc(NC(=S)NCC23C=CC(O2)C2C(=O)N(c4ccc(C)cc4)C(=O)C23)cc1 (stereo not given)	active: 49.2%
N/C(=N\OC(=O)c1ccc(Cl)c([N+](=O)[O-])c1)c1ccccc1	inconclusive: 23.3%
NS(=O)(=O)c1cccc(NC(=O)CSc2nnc(C3CC3)n2Cc2ccccc2)c1	inconclusive: 29.1%
CC(C)(C)[S@](=O)N1Cc2cc(C(=O)NCC(F)(F)F)nc(-c3cccc(-c4cccc(F)c4)c3)c2[C@@H]1CCO	inconclusive: 20.3%
C[C@@H]1CN([C@@H](C)CO)C(=O)Cc2cc(NS(=O)(=O)c3ccc(Cl)cc3)ccc2O[C@@H]1CN(C)Cc1ccc(C(F)(F)F)cc1	inconclusive: 26.8%
COc1cc(-c2cc3nc(NCc4cccs4)ccn3n2)cc(OC)c1OC	inconclusive: 35%
Cc1cc(C)c(NC(=O)CN(C)CC(=O)N(C)CC(=O)Nc2c(Cl)cccc2Cl)c(C)c1	inconclusive: 26.7%
CNC[C@H]1Oc2ccc(NC(=O)Nc3ccccc3)cc2C(=O)N([C@@H](C)CO)C[C@H]1C	inconclusive: 43.6%
Cc1noc(C)c1S(=O)(=O)Nc1ccc2c(c1)C(=O)N([C@H](C)CO)C[C@H](C)[C@H](CN(C)C(=O)CCC(F)(F)F)OCCCC[C@@H](C)O2	active: 71.9%
CN(C)C(=O)C[C@H]1CC[C@H](NC(=O)C2CCOCC2)[C@H](CO)O1	inconclusive: 29.8%
C[C@H]1CN([C@@H](C)CO)C(=O)c2cc(NC(=O)Nc3ccc4c(c3)OCO4)ccc2O[C@@H]1CN(C)S(=O)(=O)c1cccs1	inactive: 0.732%
O=C(C[C@H]1CC[C@H]2[C@@H](COC[C@H](O)CN2Cc2ccc(Cl)cc2)O1)Nc1nccs1	inactive: -1.59%
Cc1cc(C(=O)Nc2cccc3c2O[C@H](CN(C)CC2CC2)[C@H](C)CN([C@H](C)CO)C3=O)n(C)n1	inactive: -2.1%
Cc1cc(C)c(CN2CCN(C(=O)Cn3cnc(C(=O)Nc4ccc(C)c(C)c4)n3)CC2)c(C)c1	inconclusive: 44%
O=C(CCN1C(=O)c2ccccc2S1(=O)=O)N1CCN(c2ccccc2F)CC1	inconclusive: 34.4%
COc1ccc(NC(=O)Nc2ccc3c(c2)C(=O)N([C@H](C)CO)C[C@H](C)[C@@H](CN(C)Cc2ccc(Cl)c(Cl)c2)OCCCC[C@@H](C)O3)cc1	inconclusive: 21.1%
COc1ccc(CNC(=O)C[C@H]2CC[C@@H](NC(=O)c3cccc(F)c3)[C@H](CO)O2)cc1	inactive: 1.34%

SMILES	CPE inhibition
COc1ccc(S(=O)(=O)Nc2cccc3c2O[C@@H](CN(C)S(=O)(=O)c2cn(C)cn2)[C@@H](C)CN([C@@H](C)CO)C3=O)cc1	inactive: -1.37%
O=C(CSc1ccc2nnc(-c3cccnc3)n2n1)Nc1ccc(F)cc1F	inconclusive: 26.8%
C[C@@H]1CN([C@@H](C)CO)C(=O)c2cc(NS(=O)(=O)c3ccc(F)cc3)ccc2O[C@@H](C)CCCCO[C@H]1CN(C)Cc1ccc2c(c1)OCO2	inconclusive: 29.6%
COc1ccc(S(=O)(=O)N2CCC(Nc3ccccc3Cl)CC2)cc1	inconclusive: 20.2%
CC1C=NC(S(=O)(=O)N2CC[C@@H]3[C@@H](CO)N(C)c4ccc(-c5ccc(F)cc5)cc4[C@@H]32)=N1 (stereo not given in full)	active: 21.3%
COc1ccccc1CC(=O)N1CCN(S(=O)(=O)c2cccs2)CC1	inconclusive: 40.9%
C[C@H](CO)N1C[C@H](C)[C@H](CN(C)S(=O)(=O)c2ccccc2)OCCCC[C@H](C)Oc2ccc(NS(=O)(=O)c3ccc(Cl)cc3)cc2C1=O	inconclusive: 33.8%
O=C(Nc1ccc(O)cc1)c1c(O)c2c([nH]c1=O)CCCC2	inconclusive: 29.6%
COc1ccc(Cl)cc1NC(=O)CCCn1c(=O)c2cccn2c2cccnc21	inconclusive: 45.4%
CC(=C/c1ccccc1)/C=N/Nc1nc(N2CCCCC2)nc(N2CCCCC2)n1	active: 63.6%
CC(C)n1c(=O)[nH]c(=O)n1C(C)C	inconclusive: 36%
C/C=C/c1cnc2c(c1)C(=O)N([C@H](C)CO)C[C@@H](C)[C@@H](CN(C)C(=O)Nc1ccc(C(F)(F)F)cc1)O2	inactive: 4.95%
O=C1[C@H]2CC3C=CC2(O3)[C@@H]2OCCCN12 (stereo not given in full)	inconclusive: 26.3%
COc1ccc(S(=O)(=O)N(C)C[C@@H]2Oc3c(NS(=O)(=O)c4c(C)noc4C)cccc3C(=O)N([C@H](C)CO)C[C@@H]2C)cc1	inactive: 3.15%
O=C(NCCc1ccccc1)c1cccc(NC(=O)C2CC2)c1	inconclusive: 41.8%
ClCc1nnc(-c2ccccc2)o1	inconclusive: 39.5%
Cc1nc2c(C#N)c(-c3ccc(Cl)cc3)ccn2n1	inconclusive: 22.3%
COc1ccc2c3c([nH]c2c1)[C@@H](CO)N(C(=O)C1CCOCC1)CC31CN(C)C1	active: 89.7%
C[C@H](CO)N1C[C@H](C)[C@@H](CN(C)Cc2ccc3c(c2)OCO3)Oc2ccc(NC(=O)Nc3ccccc3)cc2C1=O	inconclusive: 22.6%
O=C(CS(=O)(=O)c1ccccc1)Nc1nnc(C(F)(F)F)s1	inconclusive: 31.4%
COc1ccc(CC(NC(=O)c2ccccc2)C(=O)NCC(=O)O)cc1 (stereo not given)	inconclusive: 37.3%
CCCCOc1ccc(/C=C/C(=O)OCC(=O)NC2CCS(=O)(=O)C2)cc1OCC (stereo not given)	inactive: 0.23%

Quoted from the listing:
C/C=C/c1cnc2c(c1)C(=O)N([C@H](C)CO)C[C@@H](C)[C@@H](CN(C)C(=O)Nc1ccc(C(F)(F)F)cc1)O2 | CPE inhibition: inactive: 4.95%
O=C(Nc1ccc(O)cc1)c1c(O)c2c([nH]c1=O)CCCC2 | CPE inhibition: inconclusive: 29.6%

Sorted by SMILES length (descending): part of the list above.
SMILES	CPE inhibition
CN(C)CC(=O)N1C[C@@H]2N[C@H](C1)C2c1ccc(-c2ccccc2F)cc1 (stereo not given in full)	inconclusive: 27.1%
O=C(CCN1C(=O)c2ccccc2S1(=O)=O)N1CCN(c2ccccc2F)CC1	inconclusive: 34.4%
COc1ccccc1CC(=O)N1CCN(S(=O)(=O)c2cccs2)CC1	inconclusive: 40.9%
